Results deposited as PubChem BioAssay AID743121 (NCATS, 2013).
This is one part, drawn at random, of about 26,000 reagents tested. 167 of them (0.63%) count as active. 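Calls are per gene from RSA p-values that are not deposited; an individual active-marked siRNA can sensitise only weakly.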 Reagents against one gene are numbered here. Reagent sequences are not shown.

Purpose: 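Knock-downs that sensitise breast cancer cells to camptothecin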 (primary screen)
System: MDA-MB-231 cells, a human breast cancer line
Reagent: single siRNA against human genes, 20 nM siRNA (0.8 pmol per well)
Timing: 120 h (drug added 48 h after transfection, read 72 h later)
Conditions: camptothecin 20 nM (about EC30) for 72 h; vehicle 0.1% DMSO in parallel plates
Measured: 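CellTiter-Glo ATP signal, scaled to control siRNA as percent viability; sensitisation given as log2 of untreated divided by camptothecin-treated viability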
Scale: log2 vehicle/camptothecin viability: higher = stronger sensitisation to camptothecin; viability with camptothecin and viability without drug: higher = more viable cells
Hit rule: 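Each gene scored by redundant siRNA activity (RSA) over its individual siRNA ratios; a gene is called active at p < 0.001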

Target gene | reagent no. | log2 vehicle/camptothecin viability | viability with camptothecin (% of control) | viability without drug (% of control) | call
ASB9 | 1 | -0.323 | 92.6 | 74 | inactive
ASB9 | 2 | -0.315 | 97.8 | 78.6 | inactive
ASB9 | 3 | -0.251 | 75.1 | 63.1 | inactive
ASB9 | 4 | -0.501 | 60.9 | 43 | inactive
MIPEP | 1 | 0.142 | 61.4 | 67.8 | inactive
MIPEP | 2 | 0.266 | 96.8 | 116 | inactive
MIPEP | 3 | 0.672 | 22.9 | 36.4 | inactive
MIPEP | 4 | -0.182 | 85.1 | 75 | inactive
PDPK1 | 1 | 0.209 | 35.4 | 40.9 | inactive
PDPK1 | 2 | -0.102 | 74.7 | 69.6 | inactive
PDPK1 | 3 | -0.223 | 48.6 | 41.6 | inactive
PDPK1 | 4 | 0.357 | 72.4 | 92.8 | inactive
HPRT1 | 1 | -0.216 | 90.9 | 78.3 | inactive
HPRT1 | 2 | -0.3 | 70.4 | 57.2 | inactive
HPRT1 | 3 | -0.191 | 45.8 | 40.1 | inactive
NTS | 1 | -0.109 | 60.2 | 55.9 | inactive
NTS | 2 | -0.0282 | 44.6 | 43.7 | inactive
NTS | 3 | 0.0597 | 84.5 | 88.1 | inactive
NTS | 4 | 0.417 | 64.4 | 86 | inactive
GNG4 | 1 | -0.358 | 82.9 | 64.7 | inactive
GNG4 | 2 | 0.00498 | 71.4 | 71.7 | inactive
GNG4 | 3 | 0.228 | 56 | 65.6 | inactive
GNG4 | 4 | -0.323 | 77.8 | 62.2 | inactive
ASGR2 | 1 | -0.387 | 94.1 | 71.9 | inactive
ASGR2 | 2 | 0.0412 | 54.3 | 55.9 | inactive
ASGR2 | 3 | -0.177 | 93.6 | 82.8 | inactive
NOD2 | 1 | -0.4 | 70.9 | 53.7 | inactive
NOD2 | 2 | -0.534 | 128 | 88.4 | inactive
NOD2 | 3 | -0.0208 | 89.5 | 88.3 | inactive
NOD2 | 4 | 0.179 | 88.1 | 99.7 | inactive
